Consider 55 molecules from PubChem BioAssay AID1487 (National Center for Advancing Translational Sciences (NCATS), 2009).

The nature of the assay: qHTS Assay for Modulators of Lamin A Splicing. The note with it: HeLa LMNA splicing GFP/RFP minigene ratio, 48 h. The essentials: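 Read-out is the ratio of GFP to DsRed2 object intensity, acquired by 488 nm laser-scanning cytometry on HeLa lamin A-EGFP minigene reporter cells. Compound incubation 48 hrs at 37 °C in Opti-MEM with 2% FBS; DMSO 0.5% final.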
Where [1] appears, read: measured here: RFP viability control channel.
Where [2] appears, read: measured here: GFP splicing reporter channel.

The other results are listed elsewhere or left out. Further columns of the screen follow, without active or inactive calls. Compounds called inactive in the main read-out are mostly missing here. The note in brackets gives the kind of curve behind each potency; many fits are weak.

In general, AC50 refers to the concentration at which the activity in the assay is half-maximal. As to `CCCCNC(=S)NCc1ccc2[nH]c(C)cc2c1`, the half-maximal activity concentration (AC50) under setting [1] was 20 µM [rising, single point].
In the case of `Cc1cccc(-c2nc(SCC(=O)NCc3ccco3)c3c(=O)n(C)c(=O)n(C)c3n2)c1`, the AC50 was 20 µM [rising, partial curve, poor fit] under setting [2] and 22.4 µM [rising, single point] under setting [1].
For `CC(c1ccccc1)n1c(SCC(=O)N2CC(=O)Nc3ccccc32)nc2ccccc2c1=O` (centres undefined), under setting [2], the AC50 is 35.5 µM [rising, single point].
For `Cc1nc(-c2c(-c3ccc(O)cc3O)noc2C(F)(F)F)cs1`, the AC50 under setting [1] was 14.1 µM [rising, single point].
Take `CCOC(=O)c1sc(NC(=O)Cc2ccc(C)cc2)nc1C`: under setting [1], the AC50 was 0.00398 µM [falling, full curve, poor fit].
For `CC1=CC(C)(C)N(S(=O)(=O)c2ccc(C)cc2)c2cc(C)ccc21`, the concentration at half-maximal activity (AC50) is, setting by setting: under setting [2], 5.01 µM [falling, full curve, poor fit]; under setting [1], 0.01 µM [falling, full curve, poor fit].
As to `Cc1nn(-c2ccccc2)c(N2CCCC2)c1/C=N/NC(=O)c1cccc(S(=O)(=O)Nc2ccc(Cl)cc2)c1`, under setting [1], the AC50 is 28.2 µM [rising, single point].
On the same count and under the same terms, to `COc1cc(C(=O)N/N=C\c2ccccc2)c([N+](=O)[O-])c(OC)c1OC` belongs 35.5 µM [rising, single point]; to `COc1ccc(CNC(=O)c2cc3c(=O)n(Cc4ccc(OC)cc4)ccc3nc2C)cc1`, 35.5 µM [falling, single point].
For `CCCCCCNC(=O)CC(c1ccccc1)c1cc(Br)ccc1O` (centres undefined), the AC50 is 35.5 µM [falling, single point] under setting [2] and 35.5 µM [falling, single point] under setting [1].
On to `CC(=O)Nc1nc(NC(=O)/C=C/c2ccccc2)n(-c2ccccc2)n1`, for which the concentration at half-maximal activity (AC50) was 31.6 µM [rising, single point] under setting [2] and 35.5 µM [rising, single point] under setting [1].
As for `COc1ccc(CC(=O)Nc2ccc(-c3ccc4nnc(C)n4n3)cc2)cc1OC`, the concentration at half-maximal activity (AC50) under setting [1] is 14.1 µM [rising, single point].
On the same count and under the same terms, to `CCC(=O)NC(c1cccs1)c1cc([N+](=O)[O-])c2cccnc2c1O` (centres undefined) belongs 7.08 µM [rising, full curve].
In the case of `COc1cccc(CNC(=O)c2ccc3nc(CCc4ccccc4)oc3c2)c1OC`, the concentration at half-maximal activity (AC50) under setting [2] is 12.6 µM [falling, partial curve].
Turning to `COc1ccc2c(c1)C(=O)[C@H](O)[C@@H](c1ccc(OC)c(Br)c1)O2`, the half-maximal activity concentration (AC50) under setting [2] was 22.4 µM [rising, single point].
Take `N/C(=N\OC(=O)c1ccc(=O)n(Cc2ccc(Cl)cc2)c1)c1ccccn1`: under setting [1], the AC50 is 12.6 µM [falling, single point].
Take `O=C(Nc1cccc(F)c1)c1ccc(CSc2ccccc2)o1`: the concentration at half-maximal activity (AC50) under setting [1] was 12.6 µM [rising, partial curve].
Consider `CSc1nnc(C)c(/C=C/Nc2ccc(F)cc2F)n1`, for which, under setting [1], the half-maximal activity concentration (AC50) is 17.8 µM [rising, single point].
On to `O=c1cc(-c2c(F)c(F)c(F)c(F)c2F)oc2ccccc12`, for which the AC50 under setting [1] was 20 µM [rising, single point].
As to `O=[N+]([O-])/C(C(Cl)=C(Cl)Cl)=C(\Nc1ccc(F)cc1)n1cncn1`, the AC50 under setting [2] is 35.5 µM [rising, single point].
As for `COc1cc(/C=N/n2cnc3scc(-c4cccs4)c3c2=O)cc(OC)c1OC`, the AC50 under setting [1] is 7.94 µM [rising, partial curve].
In the case of `Cc1ccc2c(c1)C1CN(C)CCC1N2S(=O)(=O)c1ccc(Oc2ccc([N+](=O)[O-])cc2)cc1` (centres undefined), the AC50 reads like this: under setting [2], 15.8 µM [falling, partial curve, poor fit]; under setting [1], 17.8 µM [falling, partial curve].
As to `COC(CN(C(=O)CCl)C(C(=O)NC1CCCCC1)c1ccccc1C)OC` (centres undefined), the AC50 under setting [1] is 22.4 µM [falling, single point].
Regarding `COc1ccccc1-c1nnc(-c2ccc(N3CCOCC3)cc2)o1`, the AC50 under setting [1] was 0.0447 µM [rising, full curve, poor fit].
Turning to `O=C(Nc1nnc(SCC(=O)N2CCOCC2)s1)c1ccccc1`, the AC50 under setting [2] was 11.2 µM [rising, single point].
Consider `CCSc1nnc(NC(=O)c2cccc(S(=O)(=O)N(C)c3ccccc3)c2)s1`, for which the AC50 under setting [1] is 35.5 µM [rising, single point].
`Cc1ccc(-c2nc3ncccc3o2)cc1NC(=O)c1cccnc1`: the AC50 under setting [1] was 0.794 µM [rising, partial curve, poor fit].
With `COc1ccc(CCN2C(=O)CN(C3CCCCCC3)C(=O)C2c2ccc(Cl)cc2)cc1OC` (centres undefined), the AC50 is 7.94 µM [falling, full curve, poor fit] under setting [2] and 20 µM [falling, partial curve, poor fit] under setting [1].
Take `COc1cc(/C=N/NC(N)=S)ccc1OCC(=O)Nc1ccc(C)c(C)c1`: the AC50 under setting [1] is 6.31 µM [rising, single point].
For `Cc1cc(C)nc(SC2c3cccc4cccc(c34)C2NS(=O)(=O)c2ccccc2)n1` (centres undefined), the AC50 is, setting by setting: under setting [2], 31.6 µM [rising, single point]; under setting [1], 35.5 µM [rising, single point].
Consider `Cc1ccc(SCc2nc3ccccc3n2CC(=O)Nc2ccccc2)cc1`, for which the AC50 by setting is: under setting [2], 11.2 µM [falling, partial curve]; under setting [1], 11.2 µM [falling, partial curve].
In the case of `O=C(Nc1ccc(Cl)cc1)c1ccsn1`, the AC50 under setting [1] was 2.51 µM [rising, single point].
Regarding `CC(C)[C@H](NC(=O)c1ccccc1)C(=O)OCC(=O)/C=C1/N(C)c2ccccc2C1(C)C`, the AC50 was 28.2 µM [rising, single point] under setting [2] and 31.6 µM [rising, single point] under setting [1].
With `COc1ccc(-c2csc(NC(=O)CSc3ncn[nH]3)n2)cc1OC`, the AC50 under setting [1] is 0.02 µM [rising, full curve, poor fit].
On to `CC1(C)CC(=O)C2=C(C1)C(c1cn(-c3ccccc3)nc1-c1ccccc1)C(C#N)=C(N)O2` (centres undefined), for which the half-maximal activity concentration (AC50) under setting [1] was 25.1 µM [rising, single point].
On to `Cc1nc2c(C(=O)NCc3cccs3)cnn2c(C)c1Cc1ccc(F)cc1`, for which, under setting [1], the AC50 was 0.1 µM [rising, full curve, poor fit].
With `Cc1cccc(CN2C(=O)c3ccccc3Sc3ccc(C(=O)NCCCN4CCOCC4)cc32)c1`, the AC50 is, setting by setting: under setting [2], 15.8 µM [falling, partial curve]; under setting [1], 20 µM [falling, partial curve, poor fit].
Regarding `COC(=O)N/N=C/c1cn(Cc2ccc(Cl)cc2Cl)c2ccccc12`, the concentration at half-maximal activity (AC50) runs as follows: under setting [2], 1.41 µM [rising, full curve]; under setting [1], 11.2 µM [rising, partial curve].
As to `COC(=O)c1nnn(CC(=O)NC(=O)Nc2cccc(Cl)c2C)c1C(=O)OC`, the AC50 under setting [2] is 3.55 µM [rising, single point].
For `Cc1sc2ncnc(SCC(=O)NC(=O)NCc3ccco3)c2c1C`, the concentration at half-maximal activity (AC50) by setting is: under setting [2], 11.2 µM [rising, single point]; under setting [1], 12.6 µM [rising, partial curve].
On to `O=C(c1ccc2c(c1)OCCO2)C1CCN(C(=O)c2ccc(F)cc2)CC1`, for which the half-maximal activity concentration (AC50) runs as follows: under setting [2], 14.1 µM [rising, single point]; under setting [1], 20 µM [rising, single point].
`O=C(Nc1ccc(Cl)cc1F)c1cc(S(=O)(=O)NC2CCCCCC2)ccc1F`: the AC50 is, setting by setting: under setting [2], 35.5 µM [falling, single point]; under setting [1], 35.5 µM [falling, single point].
In the case of `COc1ccc(NC(=O)Cn2ccn(-c3ccc(C)c(C)c3)c(=O)c2=O)cc1Cl`, the AC50 under setting [2] is 0.00891 µM [falling, full curve, poor fit].
For the molecule `COc1ccccc1CNc1ncnc2ccc(-c3ccc4c(c3)OCO4)cc12`, the concentration at half-maximal activity (AC50) was 12.6 µM [falling, partial curve] under setting [2] and 22.4 µM [falling, single point] under setting [1].
For the molecule `Cc1cccc(-c2nc3cc(NC(=O)COc4ccccc4F)ccc3o2)c1`, the AC50 under setting [2] was 0.708 µM [rising, full curve, poor fit] and the AC50 under setting [1] is 1 µM [rising, full curve].
`Cc1cc(/C=C(\C#N)C(=O)Nc2ccc(F)cc2)c(C)n1-c1ccc(N2CCOCC2)c([N+](=O)[O-])c1`: the AC50 under setting [1] was 7.94 µM [rising, partial curve].
As for `COc1cccc(-c2nc(CSCC(=O)NCC3CCCO3)c(C)o2)c1` (centres undefined), the half-maximal activity concentration (AC50) is 8.91 µM [rising, partial curve, poor fit] under setting [2] and 14.1 µM [rising, single point] under setting [1].
As for `CC(C)OC(=O)c1cc(C(=O)c2cc(Br)ccc2O)coc1=N`, the concentration at half-maximal activity (AC50) under setting [1] was 0.562 µM [falling, full curve, poor fit].
For the molecule `CCOC(=O)c1ccccc1NS(=O)(=O)c1ccc(OCC)cc1`, the concentration at half-maximal activity (AC50) under setting [1] was 8.91 µM [rising, partial curve, poor fit].
Take `Cc1nnc(SCC(=O)NC(C)(C)C)n1NCc1ccc(Cl)cc1`: under setting [1], the AC50 is 6.31 µM [falling, partial curve, poor fit].
As to `COC(=O)c1sccc1NC(=S)N1CCN(c2cccc(C)c2C)CC1`, the AC50 runs as follows: under setting [2], 31.6 µM [rising, single point]; under setting [1], 35.5 µM [rising, single point].
Turning to `O=C(O)c1ccc(NC(=O)C2C3CCC(C3)C2C(=O)O)cc1` (centres undefined), the AC50 under setting [1] is 4.47 µM [falling, full curve, poor fit].
As for `Cc1ccc(S(=O)(=O)Oc2ccccc2/C=N/NC(=O)c2c(Cl)cnn2C)cc1`, the concentration at half-maximal activity (AC50) under setting [1] was 15.8 µM [rising, single point].
Turning to `Cc1ccc(-c2csc3ncnc(N4CCN(C(=O)c5ccccc5)CC4)c23)cc1`, the AC50 under setting [1] was 35.5 µM [rising, single point].
Regarding `CCOc1ccc(-c2cc3c(=O)n(CC(=O)NCc4ccccc4)ccn3n2)cc1`, the half-maximal activity concentration (AC50) was 0.02 µM [rising, full curve, poor fit] under setting [2] and 0.01 µM [rising, full curve, poor fit] under setting [1].
